Construct, isoform or probe ends are uncertain for at least one entry. For some of these results: Negatives hold for the conditions tested. For some of these results: Where cells or extracts were used, other partners may take part.
Tests used:
[1] = biological target: FLAG-MEOX2 (HUVEC nuclear extract) (human) (UniProt P50222); assay: competition with a labelled probe; conditions: vs labelled A6; p16 probes: 10 mM Tris pH 7.5, 50 mM KCl, 1 mM DTT, 50 ng/ul poly(dI-dC), 5% glycerol, 0.05% NP-40, 3.5 mM MgCl2, 0.5 mM EDTA, 0.25 mg/ml BSA, 30 min room temperature; protein in an extract; residues 1-304; protein details: N-terminal FLAG; label: none (cold competitor)
[2] = biological target: GST-MEOX2 (human) (UniProt P50222); assay: competition with a labelled probe; conditions: p16 probes: 10 mM Tris pH 7.5, 50 mM KCl, 1 mM DTT, 50 ng/ul poly(dI-dC), 5% glycerol, 0.05% NP-40, 3.5 mM MgCl2, 0.5 mM EDTA, 0.25 mg/ml BSA, 30 min room temperature, recombinant protein, residues 1-304, protein details: N-terminal GST (pET-41a(+)), label: none (cold competitor)
[3] = biological target: FLAG-MEOX2 (HUVEC nuclear extract) (human) (UniProt P50222); assay: EMSA supershift; conditions: anti-FLAG, p16 probes: 10 mM Tris pH 7.5, 50 mM KCl, 1 mM DTT, 50 ng/ul poly(dI-dC), 5% glycerol, 0.05% NP-40, 3.5 mM MgCl2, 0.5 mM EDTA, 0.25 mg/ml BSA, 30 min room temperature, protein in an extract, residues 1-304, protein details: N-terminal FLAG, label: biotin end label, unlabelled as competitor
[4] = biological target: FLAG-MEOX1 (HUVEC nuclear extract) (mouse) (UniProt P32442); assay: EMSA supershift; conditions: anti-FLAG, p16 probes: 10 mM Tris pH 7.5, 50 mM KCl, 1 mM DTT, 50 ng/ul poly(dI-dC), 5% glycerol, 0.05% NP-40, 3.5 mM MgCl2, 0.5 mM EDTA, 0.25 mg/ml BSA, 30 min room temperature, protein in an extract, residues 1-253, protein details: N-terminal FLAG, label: biotin end label, unlabelled as competitor
[5] = biological target: GST-MEOX1 (mouse) (UniProt P32442); assay: EMSA; conditions: p16 probes: 10 mM Tris pH 7.5, 50 mM KCl, 1 mM DTT, 50 ng/ul poly(dI-dC), 5% glycerol, 0.05% NP-40, 3.5 mM MgCl2, 0.5 mM EDTA, 0.25 mg/ml BSA, 30 min room temperature, recombinant protein, residues 1-253, protein details: N-terminal GST (pET-41a(+)), label: biotin end label
[6] = biological target: GST-MEOX2 Q235E Q236E (human) (UniProt P50222); assay: EMSA; conditions: p16 probes: 10 mM Tris pH 7.5, 50 mM KCl, 1 mM DTT, 50 ng/ul poly(dI-dC), 5% glycerol, 0.05% NP-40, 3.5 mM MgCl2, 0.5 mM EDTA, 0.25 mg/ml BSA, 30 min room temperature, recombinant protein, residues 1-304, protein details: N-terminal GST (pET-41a(+)), label: biotin end label
[7] = biological target: FLAG-MEOX2 Q235E (HUVEC nuclear extract) Q236E (human) (UniProt P50222); assay: EMSA; conditions: p16 probes: 10 mM Tris pH 7.5, 50 mM KCl, 1 mM DTT, 50 ng/ul poly(dI-dC), 5% glycerol, 0.05% NP-40, 3.5 mM MgCl2, 0.5 mM EDTA, 0.25 mg/ml BSA, 30 min room temperature, protein in an extract, residues 1-304, protein details: N-terminal FLAG, label: biotin end label
[8] = biological target: FLAG-MEOX1 (HEK293 nuclear extract) (mouse) (UniProt P32442); assay: EMSA; conditions: p16 probes: 10 mM Tris pH 7.5, 50 mM KCl, 1 mM DTT, 50 ng/ul poly(dI-dC), 5% glycerol, 0.05% NP-40, 3.5 mM MgCl2, 0.5 mM EDTA, 0.25 mg/ml BSA, 30 min room temperature; protein in an extract; residues 1-253; protein details: FLAG; label: biotin end label, unlabelled as competitor
[9] = biological target: FLAG-MEOX1 Q220E (HEK293 nuclear extract) Q219E (mouse) (UniProt P32442); assay: EMSA; conditions: p16 probes: 10 mM Tris pH 7.5, 50 mM KCl, 1 mM DTT, 50 ng/ul poly(dI-dC), 5% glycerol, 0.05% NP-40, 3.5 mM MgCl2, 0.5 mM EDTA, 0.25 mg/ml BSA, 30 min room temperature; protein in an extract; residues 1-253; protein details: FLAG; label: biotin end label, unlabelled as competitor
[10] = biological target: GST-MEOX2 (human) (UniProt P50222); assay: EMSA; conditions: p16 probes: 10 mM Tris pH 7.5, 50 mM KCl, 1 mM DTT, 50 ng/ul poly(dI-dC), 5% glycerol, 0.05% NP-40, 3.5 mM MgCl2, 0.5 mM EDTA, 0.25 mg/ml BSA, 30 min room temperature, recombinant protein, residues 1-304, protein details: N-terminal GST (pET-41a(+)), label: biotin end label
[11] = biological target: FLAG-MEOX2 (HEK293 nuclear extract) (human) (UniProt P50222); assay: EMSA; conditions: p16 probes: 10 mM Tris pH 7.5, 50 mM KCl, 1 mM DTT, 50 ng/ul poly(dI-dC), 5% glycerol, 0.05% NP-40, 3.5 mM MgCl2, 0.5 mM EDTA, 0.25 mg/ml BSA, 30 min room temperature; protein in an extract; residues 1-304; protein details: FLAG; label: biotin end label, unlabelled as competitor
[12] = biological target: FLAG-MEOX2 H68_Q85del (HEK293 nuclear extract) del69-86 (human) (UniProt P50222); assay: EMSA; conditions: p16 probes: 10 mM Tris pH 7.5, 50 mM KCl, 1 mM DTT, 50 ng/ul poly(dI-dC), 5% glycerol, 0.05% NP-40, 3.5 mM MgCl2, 0.5 mM EDTA, 0.25 mg/ml BSA, 30 min room temperature; protein in an extract; residues 1-304; protein details: FLAG; label: biotin end label, unlabelled as competitor
[13] = biological target: FLAG-MEOX2 Q235E (HEK293 nuclear extract) Q236E (human) (UniProt P50222); assay: EMSA; conditions: p16 probes: 10 mM Tris pH 7.5, 50 mM KCl, 1 mM DTT, 50 ng/ul poly(dI-dC), 5% glycerol, 0.05% NP-40, 3.5 mM MgCl2, 0.5 mM EDTA, 0.25 mg/ml BSA, 30 min room temperature; protein in an extract; residues 1-304; protein details: FLAG; label: biotin end label, unlabelled as competitor
[14] = biological target: FLAG-MEOX2 (HUVEC nuclear extract) (human) (UniProt P50222); assay: EMSA; conditions: p16 probes: 10 mM Tris pH 7.5, 50 mM KCl, 1 mM DTT, 50 ng/ul poly(dI-dC), 5% glycerol, 0.05% NP-40, 3.5 mM MgCl2, 0.5 mM EDTA, 0.25 mg/ml BSA, 30 min room temperature; protein in an extract; residues 1-304; protein details: N-terminal FLAG; label: biotin end label
[15] = biological target: FLAG-MEOX1 (HUVEC nuclear extract) (mouse) (UniProt P32442); assay: EMSA; conditions: p16 probes: 10 mM Tris pH 7.5, 50 mM KCl, 1 mM DTT, 50 ng/ul poly(dI-dC), 5% glycerol, 0.05% NP-40, 3.5 mM MgCl2, 0.5 mM EDTA, 0.25 mg/ml BSA, 30 min room temperature; protein in an extract; residues 1-253; protein details: N-terminal FLAG; label: biotin end label
[16] = biological target: GST-MEOX1 (mouse) (UniProt P32442); assay: competition with a labelled probe; conditions: vs labelled Proximal probe, protein preparation (recombinant or extract) not stated; p16 probes: 10 mM Tris pH 7.5, 50 mM KCl, 1 mM DTT, 50 ng/ul poly(dI-dC), 5% glycerol, 0.05% NP-40, 3.5 mM MgCl2, 0.5 mM EDTA, 0.25 mg/ml BSA, 30 min room temperature; recombinant protein; residues 1-253; protein details: N-terminal GST (pET-41a(+)); label: none (cold competitor)
[17] = biological target: GST (UniProt P08515); assay: EMSA; conditions: p16 probes: 10 mM Tris pH 7.5, 50 mM KCl, 1 mM DTT, 50 ng/ul poly(dI-dC), 5% glycerol, 0.05% NP-40, 3.5 mM MgCl2, 0.5 mM EDTA, 0.25 mg/ml BSA, 30 min room temperature; recombinant protein; label: biotin end label, unlabelled as competitor

By UniProt entry, the sequences of proteins in these tests, tags left out. Chains listed by the source or under a name are the forms on record and can include a tag or linker.
UniProt P50222, whole entry Q236E: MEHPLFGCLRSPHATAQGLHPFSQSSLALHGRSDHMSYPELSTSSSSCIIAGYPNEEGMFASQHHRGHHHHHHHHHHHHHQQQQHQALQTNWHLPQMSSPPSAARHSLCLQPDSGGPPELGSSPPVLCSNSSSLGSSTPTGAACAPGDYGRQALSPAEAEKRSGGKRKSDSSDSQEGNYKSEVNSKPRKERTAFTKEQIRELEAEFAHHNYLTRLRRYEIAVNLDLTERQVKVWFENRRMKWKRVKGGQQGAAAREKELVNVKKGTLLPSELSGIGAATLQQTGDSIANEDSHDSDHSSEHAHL
UniProt P50222, other isoform, or with tags, fused parts or gaps, stated change not applied: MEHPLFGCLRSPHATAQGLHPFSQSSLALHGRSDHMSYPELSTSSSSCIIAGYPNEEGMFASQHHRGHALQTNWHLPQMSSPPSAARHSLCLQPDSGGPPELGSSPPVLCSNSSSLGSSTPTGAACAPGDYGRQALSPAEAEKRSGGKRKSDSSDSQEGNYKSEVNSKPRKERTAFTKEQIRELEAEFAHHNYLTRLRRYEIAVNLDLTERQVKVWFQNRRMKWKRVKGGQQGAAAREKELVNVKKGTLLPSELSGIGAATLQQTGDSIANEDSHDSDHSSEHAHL
UniProt P32442, whole entry Q219E: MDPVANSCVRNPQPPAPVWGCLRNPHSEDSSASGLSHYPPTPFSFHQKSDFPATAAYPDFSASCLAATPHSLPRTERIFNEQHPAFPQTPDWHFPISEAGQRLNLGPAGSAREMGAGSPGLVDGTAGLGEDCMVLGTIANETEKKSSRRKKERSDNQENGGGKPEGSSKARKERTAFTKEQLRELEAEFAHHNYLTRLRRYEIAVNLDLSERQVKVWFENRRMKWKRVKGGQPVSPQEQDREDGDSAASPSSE
UniProt P08515, whole entry: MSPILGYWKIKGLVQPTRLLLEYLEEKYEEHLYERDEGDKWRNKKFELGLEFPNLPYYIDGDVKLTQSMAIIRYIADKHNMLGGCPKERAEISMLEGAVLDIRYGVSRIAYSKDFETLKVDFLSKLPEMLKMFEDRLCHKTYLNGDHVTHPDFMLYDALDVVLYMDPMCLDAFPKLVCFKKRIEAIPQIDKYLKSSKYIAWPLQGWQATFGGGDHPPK

Does “CCCCGATGGCAGTACAAGTACAGATGACACT (double strand) [MT11 (p21CIP1/WAF1 mutant)]” bind [1]?
Result: no binding

Does “CCCCGATGGCAGTACAAGTACAGATGACACT (double strand) [MT11 (p21CIP1/WAF1 mutant)]” bind ([2]; vs labelled A6)?
Result: no binding

Does “CCCCGATGGCATTACAATTACAGATGACACT (double strand) [A6 (p21CIP1/WAF1)]” bind [3]?
Result: binds

Does “CCCCGATGGCATTACAATTACAGATGACACT (double strand) [A6 (p21CIP1/WAF1)]” bind [4]?
Result: binds

Does “CCCCGATGGCATTACAATTACAGATGACACT (double strand) [A6 (p21CIP1/WAF1)]” bind ([5]; unlabelled as competitor)?
Result: binds

Does “CCCCGATGGCATTACAATTACAGATGACACT (double strand) [A6 (p21CIP1/WAF1)]” bind ([6]; unlabelled as competitor)?
Result: no binding

Does “CCCCGATGGCATTACAATTACAGATGACACT (double strand) [A6 (p21CIP1/WAF1)]” bind ([7]; unlabelled as competitor)?
Result: no binding

Does “CCCCGATGGCATTACAATTACAGATGACACT (double strand) [A6 (p21CIP1/WAF1)]” bind [8]?
Result: binds

Does “CCCCGATGGCATTACAATTACAGATGACACT (double strand) [A6 (p21CIP1/WAF1)]” bind [9]?
Result: no binding

Does “CCCCGATGGCATTACAATTACAGATGACACT (double strand) [A6 (p21CIP1/WAF1)]” bind ([10]; unlabelled as competitor)?
Result: binds

Does “CCCCGATGGCATTACAATTACAGATGACACT (double strand) [A6 (p21CIP1/WAF1)]” bind [11]?
Result: binds

Does “CCCCGATGGCATTACAATTACAGATGACACT (double strand) [A6 (p21CIP1/WAF1)]” bind [12]?
Result: binds

Does “CCCCGATGGCATTACAATTACAGATGACACT (double strand) [A6 (p21CIP1/WAF1)]” bind [13]?
Result: no binding

Does “CTCCCCCGTCCGTATTAAATAAACCTCATC (double strand) [D16WT (p16INK4a Distal)]” bind [5]?
Result: no binding

Does “CTCCCCCGTCCGTATTAAATAAACCTCATC (double strand) [D16WT (p16INK4a Distal)]” bind [14]?
Result: no binding

Does “CTCCCCCGTCCGTATTAAATAAACCTCATC (double strand) [D16WT (p16INK4a Distal)]” bind [6]?
Result: no binding

Does “CTCCCCCGTCCGTATTAAATAAACCTCATC (double strand) [D16WT (p16INK4a Distal)]” bind [7]?
Result: no binding

Does “CTCCCCCGTCCGTATTAAATAAACCTCATC (double strand) [D16WT (p16INK4a Distal)]” bind [15]?
Result: no binding

Does “CTCCCCCGTCCGTATTAAATAAACCTCATC (double strand) [D16WT (p16INK4a Distal)]” bind [10]?
Result: no binding

Which results are given for “GCTTTTTCTTATGAGGAAAAGAAGAAGCCA (double strand) [P16MT (p16INK4a Proximal mutant)]”?
binding result [16]: no binding; binding result ([2]; vs labelled Proximal probe, protein preparation (recombinant or extract) not stated): no binding

Which results are given for “GCTTTTTCTTATGATTAAAAGAAGAAGCCA (double strand) [P16WT (p16INK4a Proximal)]”?
binding result ([3]; one complex): binds; binding result ([4]; two complexes): binds; binding result ([5]; unlabelled as competitor): binds; binding result ([6]; unlabelled as competitor): no binding; binding result ([7]; unlabelled as competitor): no binding; binding result [17]: no binding; binding result ([10]; unlabelled as competitor): binds
